According to patent US20200087392A1:
Results are given in words; binding and its absence hold for the method and conditions named. Some entries that bind do so weakly or less than the wild type.

Sequences of proteins named here, by UniProt entry; tags and fusion partners are left off. A change or cut given only in a name is not applied to a line headed by its entry.
UniProt Q86Z14: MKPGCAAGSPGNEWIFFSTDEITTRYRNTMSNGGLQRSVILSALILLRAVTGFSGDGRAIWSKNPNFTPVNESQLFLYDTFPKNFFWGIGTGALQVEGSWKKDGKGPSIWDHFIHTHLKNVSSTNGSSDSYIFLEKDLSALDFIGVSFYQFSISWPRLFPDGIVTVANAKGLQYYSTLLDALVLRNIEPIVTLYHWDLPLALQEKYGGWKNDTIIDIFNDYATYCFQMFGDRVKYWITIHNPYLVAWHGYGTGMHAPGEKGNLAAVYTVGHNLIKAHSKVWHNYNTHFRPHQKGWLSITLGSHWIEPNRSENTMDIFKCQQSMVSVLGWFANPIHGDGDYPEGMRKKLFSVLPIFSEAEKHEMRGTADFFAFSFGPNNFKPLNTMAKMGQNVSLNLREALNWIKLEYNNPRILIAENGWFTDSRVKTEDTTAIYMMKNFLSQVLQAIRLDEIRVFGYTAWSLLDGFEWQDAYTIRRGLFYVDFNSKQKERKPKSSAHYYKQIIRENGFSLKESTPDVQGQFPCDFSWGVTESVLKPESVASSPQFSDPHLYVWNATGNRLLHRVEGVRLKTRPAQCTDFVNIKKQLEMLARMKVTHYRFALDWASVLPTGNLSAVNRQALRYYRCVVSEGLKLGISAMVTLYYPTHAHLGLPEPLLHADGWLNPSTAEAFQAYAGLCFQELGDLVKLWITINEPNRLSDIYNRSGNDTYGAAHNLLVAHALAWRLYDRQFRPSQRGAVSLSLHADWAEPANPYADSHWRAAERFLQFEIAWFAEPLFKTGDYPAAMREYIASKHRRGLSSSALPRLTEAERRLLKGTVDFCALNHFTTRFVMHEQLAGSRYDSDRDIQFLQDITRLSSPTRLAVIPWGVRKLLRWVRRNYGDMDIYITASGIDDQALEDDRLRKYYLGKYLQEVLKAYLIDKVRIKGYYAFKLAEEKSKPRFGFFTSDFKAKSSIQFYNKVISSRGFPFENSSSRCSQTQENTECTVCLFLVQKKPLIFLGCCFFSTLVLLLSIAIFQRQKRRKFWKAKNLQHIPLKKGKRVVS

Columns and labels:
[1] = molecular target: NOV001; test: solution equilibrium titration (SET): NOV001 held at 10 pM, human β-klotho (KLB) titrated in solution, y axis 'Signal'
[2] = molecular target: NOV002; test: solution equilibrium titration (SET): NOV002 held at 10 pM, human β-klotho (KLB) titrated in solution, y axis 'Signal'
[3] = molecular target: NOV004; test: solution equilibrium titration (SET): NOV004 held at 10 pM, human β-klotho (KLB) titrated in solution, y axis 'Signal'

Measured: binding

human β-klotho (from UniProt Q86Z14 52-997) (receptor)
binds: all assays above
